# Data published in paper doi:10.1101/2025.03.07.641992.
# Chains of the proteins cited; added tags and fusions are not shown.
# UniProt P16473, whole entry: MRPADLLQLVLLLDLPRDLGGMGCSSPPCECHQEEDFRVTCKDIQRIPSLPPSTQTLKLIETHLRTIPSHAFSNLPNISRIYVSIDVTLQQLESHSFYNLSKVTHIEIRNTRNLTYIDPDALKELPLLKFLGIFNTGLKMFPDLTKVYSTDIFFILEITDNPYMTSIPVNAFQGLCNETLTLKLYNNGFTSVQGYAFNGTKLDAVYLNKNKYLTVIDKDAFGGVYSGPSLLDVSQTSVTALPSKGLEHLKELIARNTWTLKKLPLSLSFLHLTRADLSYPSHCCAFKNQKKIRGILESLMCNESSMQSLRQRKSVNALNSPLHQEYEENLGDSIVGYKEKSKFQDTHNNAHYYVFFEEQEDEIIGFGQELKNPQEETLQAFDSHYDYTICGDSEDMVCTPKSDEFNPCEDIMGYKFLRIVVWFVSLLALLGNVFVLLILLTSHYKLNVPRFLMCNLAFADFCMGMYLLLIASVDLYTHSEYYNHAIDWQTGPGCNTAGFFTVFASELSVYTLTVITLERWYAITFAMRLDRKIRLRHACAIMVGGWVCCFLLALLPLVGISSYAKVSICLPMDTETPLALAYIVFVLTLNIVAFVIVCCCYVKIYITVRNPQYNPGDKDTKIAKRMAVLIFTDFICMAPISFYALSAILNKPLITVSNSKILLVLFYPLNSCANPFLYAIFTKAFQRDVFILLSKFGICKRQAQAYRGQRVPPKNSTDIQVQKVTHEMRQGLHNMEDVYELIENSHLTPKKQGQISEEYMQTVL
# UniProt P16473, whole entry N170A/K218A/D219A/K244A: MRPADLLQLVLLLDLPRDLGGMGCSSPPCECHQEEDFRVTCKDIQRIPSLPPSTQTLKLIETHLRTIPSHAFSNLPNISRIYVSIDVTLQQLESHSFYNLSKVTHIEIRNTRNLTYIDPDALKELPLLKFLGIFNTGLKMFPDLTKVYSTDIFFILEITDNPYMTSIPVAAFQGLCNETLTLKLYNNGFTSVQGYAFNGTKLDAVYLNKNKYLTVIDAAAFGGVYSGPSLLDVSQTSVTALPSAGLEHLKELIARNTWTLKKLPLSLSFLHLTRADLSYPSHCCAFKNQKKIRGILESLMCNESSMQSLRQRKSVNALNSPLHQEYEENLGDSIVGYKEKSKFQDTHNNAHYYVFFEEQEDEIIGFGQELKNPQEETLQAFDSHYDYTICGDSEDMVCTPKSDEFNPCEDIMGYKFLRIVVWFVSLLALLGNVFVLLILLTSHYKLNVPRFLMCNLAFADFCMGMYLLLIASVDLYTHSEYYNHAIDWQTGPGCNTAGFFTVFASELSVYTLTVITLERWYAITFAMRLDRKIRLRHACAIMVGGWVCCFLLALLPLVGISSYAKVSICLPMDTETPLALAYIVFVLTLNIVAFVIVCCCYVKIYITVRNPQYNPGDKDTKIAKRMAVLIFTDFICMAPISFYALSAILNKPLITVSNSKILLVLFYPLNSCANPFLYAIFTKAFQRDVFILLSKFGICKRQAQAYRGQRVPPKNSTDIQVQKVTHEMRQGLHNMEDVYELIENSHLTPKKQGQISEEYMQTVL
# UniProt P16473, whole entry K218A: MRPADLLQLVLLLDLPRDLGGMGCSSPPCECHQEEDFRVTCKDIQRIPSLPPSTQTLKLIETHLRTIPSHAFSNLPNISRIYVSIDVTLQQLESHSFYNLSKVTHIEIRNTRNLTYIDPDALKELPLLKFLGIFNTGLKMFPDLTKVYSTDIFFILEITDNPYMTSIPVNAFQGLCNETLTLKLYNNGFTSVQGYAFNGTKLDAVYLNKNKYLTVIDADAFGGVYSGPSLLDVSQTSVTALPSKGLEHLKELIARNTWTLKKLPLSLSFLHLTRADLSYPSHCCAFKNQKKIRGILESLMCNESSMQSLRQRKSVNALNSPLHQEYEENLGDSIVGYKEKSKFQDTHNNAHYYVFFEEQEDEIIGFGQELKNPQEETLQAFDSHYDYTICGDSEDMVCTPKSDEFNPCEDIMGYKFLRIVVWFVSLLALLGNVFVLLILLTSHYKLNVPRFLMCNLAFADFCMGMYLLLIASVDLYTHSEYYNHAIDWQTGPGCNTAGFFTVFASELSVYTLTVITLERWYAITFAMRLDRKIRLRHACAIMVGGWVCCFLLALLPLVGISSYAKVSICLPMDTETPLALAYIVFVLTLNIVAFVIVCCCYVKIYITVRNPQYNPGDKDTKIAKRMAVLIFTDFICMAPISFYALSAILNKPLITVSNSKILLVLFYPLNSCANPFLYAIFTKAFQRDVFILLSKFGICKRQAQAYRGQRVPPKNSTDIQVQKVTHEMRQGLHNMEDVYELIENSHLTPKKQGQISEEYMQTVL
# Construct, isoform or probe ends are uncertain for at least one entry. Where cells or extracts were used, other partners may take part. For some of these results: A weaker result is weaker than the reference pair of the same experiment. For some of these results: At least one verdict rests on a figure or table, not on a statement of the authors.
# Columns and labels:
# [1] = molecular target: TSHR from TSHR-293T membrane protein extract (human) (UniProt P16473); test: pull-down; details: protein in a lysate after overexpression
# [2] = molecular target: TSHR on HEK293T cells (TSHR-293T) (human) (UniProt P16473); test: competition with a labelled probe; details: excess unlabeled YC3 vs FAM-PS-YC3-PEG; protein on the cell surface
# [3] = molecular target: TSHR on Nthy-ori 3-1 cells (UniProt P16473); test: flow cytometry; details: reduced by TSHR siRNA; protein on the cell surface
# [4] = molecular target: TSHR quadruple mutant N170A,K218A,D219A,K244A (human) (UniProt P16473); test: flow cytometry; details: most reduced of all mutants; protein on the cell surface
# TSHR K218A (human) = TSHR K218A (human) (UniProt P16473); test: flow cytometry; details: largest decrease of the single mutants; protein on the cell surface
# [5] = molecular target: TSHR on HEK293T cells (TSHR-293T) (human) (UniProt P16473); test: flow cytometry; details: protein on the cell surface
# [6] = 250 nM aptamer, less intense signal
sequence,measurement,setting,value
ACCGACCGTGCTGGACTCAGATGAACAATCGATGGAAGATTGGGTCGCACCGGCCTCTTTCACTATGAGCGAGCCTGGCG [YC3],binding result,[1],binds
same,binding result,[2],binds
same,binding result,[3],binds
same,binding result,[4],binds more weakly
same,binding result,TSHR K218A (human),binds more weakly
same,binding result,"[5]; 37 C, stronger than at 4 C",binds
same,binding result,[5]; excess M22 antibody does not inhibit,binds
ACCGACCGTGCTGGACTCAATCCATCGTCGACGAGCATACGAAGGGAGGGTATTGTAAGGGACTATGAGCGAGCCTGGCG [YC2],binding result,[5]; 250 nM aptamer,binds
ACCGACCGTGCTGGACTCATGGTCACATCTATCGTACTAGCATGGGTCAATTGGCCTCTTGACTATGAGCGAGCCTGGCG [YC7],binding result,[5]; 250 nM aptamer,binds
ACCGACCGTGCTGGACTCAGGGTGGGTCGTTTCATAGGAAACGGGTGGAACGCCTCTAGCCACTATGAGCGAGCCTGGCG [YC4],binding result,[5]; [6],binds
ACCGACCGTGCTGGACTCAGGGCGCATCTTTGGTAAGCAAAGATGGGTTGCAAGCCTCTCGACTATGAGCGAGCCTGGCG [YC1],binding result,[5]; 250 nM aptamer,binds
ACCGACCGTGCTGGACTCAGATGAACTGGGTCGCACCGGCCTCTTTCACTATGAGCGAGCCTGGCG [YC3-b],binding result,[5]; 500 nM aptamer,binds more weakly
ACCGACCGTGCGATGAACAATCGATGGAAGATTGGGTCGCACCGGCCTCTTTCACTATGAGCGAGCCTGGCG [YC3-a],binding result,[5]; 500 nM aptamer,binds more weakly
ACCGACCGTGCTGGACTCAGCCGTGACGTTCTACAGAGAACGGGTGGACCCGCCTCCTCACTATGAGCGAGCCTGGCG [YC8],binding result,[5]; 250 nM aptamer,binds
ACCGACCGTGCTGGACTCAGACGGAATCGTCCTTTGTCTACGTGCGGTCTAGACTGTATAGACTATGAGCGAGCCTGGCG [YC5],binding result,[5]; [6],binds
ACCGACCGTGCTGGACTCAGCCGTGACGTTCTACAGAGAACGGGTGGATCCCGCCTCTTCACTATGAGCGAGCCTGGCG [YC6],binding result,[5]; 250 nM aptamer,binds
